PubChem BioAssay AID1259308 | NCATS, 2017

Purpose: 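Knock-downs that increase output of a recombinant reporter protein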 (primary screen)
Cells: human HEK293 embryonic kidney cells stably expressing firefly luciferase (HEK-CMV-Luc2-Hygro)
Knock-down reagent: single siRNA against human genes, 0.8 pmol siRNA per well
Timing: 72 h
Measurement: 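Reporter luminescence and viable-cell signal on separate replicate plates, given as percent of non-targeting control and median/MAD z-scores, plus per-cell luciferase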
Reading the numbers: total luciferase, z-score: higher = more reporter protein produced
Call rule: 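An siRNA counts as active if its total luciferase robust z-score exceeds 3; genes with two or more such siRNAs out of three were retested with fresh siRNAs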
Calls: active = raised luciferase; inactive = no rise
This is one part, drawn at random, of about 59,000 deposited reagents. About 1,510 of all reagents (2.6%) were called active. 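Calls use total luciferase alone and ignore viability, so some active siRNAs may act by altering cell number.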 Reagents against one gene are numbered here. Further read-outs or replicates are left out here.

How did the screen score ARMS2 (GeneID 387715) #1?
total luciferase, z-score: -0.888; outcome: inactive

Which result is listed for ARMS2 (GeneID 387715) #2?
total luciferase, z-score: -1.22; outcome: inactive

What did the screen give for ARMS2 (GeneID 387715) #3?
total luciferase, z-score: 0.54; outcome: inactive

How did the screen score ANXA2 (GeneID 302) #1?
total luciferase, z-score: 1.55; outcome: inactive

For ANXA2 (GeneID 302) #2, how do the results read?
total luciferase, z-score: -1.59; outcome: inactive

What did the screen give for ANXA2 (GeneID 302) #3?
total luciferase, z-score: 1.83; outcome: inactive

Reprinted from above, 2 entries:
ANXA2 (GeneID 302) #1 | total luciferase, z-score: 1.55; outcome: inactive
ANXA2 (GeneID 302) #2 | total luciferase, z-score: -1.59; outcome: inactive

Continued.
What did the screen give for FBLN1 (GeneID 2192) #1?
total luciferase, z-score: 2.7; outcome: inactive

What did the screen give for FBLN1 (GeneID 2192) #2?
total luciferase, z-score: -0.174; outcome: inactive

Which result is listed for FBLN1 (GeneID 2192) #3?
total luciferase, z-score: 2.05; outcome: inactive

How did the screen score SKIC3 (GeneID 9652) #1?
total luciferase, z-score: -0.668; outcome: inactive

What did the screen give for SKIC3 (GeneID 9652) #2?
total luciferase, z-score: -0.0322; outcome: inactive

How did the screen score SKIC3 (GeneID 9652) #3?
total luciferase, z-score: -0.788; outcome: inactive
